Data taken from PMC4476799, “Englerin A Agonizes the TRPC4/C5 Cation Channels to Inhibit Tumor Cell Line Proliferation” (PLoS ONE, 2015).
This continues a long series; more values of the same kind are listed elsewhere.

System: cancer cell lines from the cancer cell line encyclopedia (CCLE)
Assay: Cell line profiling (CLiP) proliferation experiment
Assay type: cell-based
Parameters: ACTIVITY_AREA: scale not given here; AMAX: unit not given here
Experimental: Compound profiling experiment and data analysis was performed as previously described. Data was imported and plotted using the Tibco Spotfire DXP application. Lines were categorized as sensitive, intermediate and refractory as follows: Amax<-40 & Inflection Point <2 ~ Sensitive, Amax>-20 & Inflection Point >10 ~ Refractory, all else were called Intermediate. Cancer Cell line HG-U133 Plus 2 data was processed and normalized as described. […] Five sets of refractory cell lines were generated from the pool of refractory cell lines trying to match the lineage composition of the set of sensitive cell lines. The limma package was used as previously described to perform the statistical comparison.

[1] = KYO-1 (haematopoietic_and_lymphoid_tissue)

With `CC(C)[C@@]12C[C@@H](O)[C@@](C)(O1)[C@@H]1CC[C@@H](C)[C@H]1[C@@H]2OC(=O)/C=C/c1ccccc1` [Englerin B] the AMAX (KCL-22) was -86.03, the RESPONSE (KCL-22) was “INTERMEDIATE” and the ACTIVITY_AREA (KCL-22 cells) was 43.03. The AMAX (KCL-22 cells) was -86.03, the RESPONSE (KCL-22 cells) was “INTERMEDIATE” and the ACTIVITY_AREA (KELLY) was 53.88. For the same molecule, the AMAX (KELLY) was -99.41, the RESPONSE (KELLY) was “INTERMEDIATE” and the ACTIVITY_AREA (KHM-1B) was 22.65. The AMAX (KHM-1B) was -74.36, the RESPONSE (KHM-1B) was “INTERMEDIATE” and the ACTIVITY_AREA (KHM-1B cells) was 22.65. The AMAX (KHM-1B cells) was -74.36, the RESPONSE (KHM-1B cells) was “INTERMEDIATE” and the ACTIVITY_AREA (KLE) was 36.8. The AMAX (KLE) was -42.78, the RESPONSE (KLE) was “INTERMEDIATE” and the ACTIVITY_AREA (KM12) was 27.86. The AMAX (KM12) was -33.54, the RESPONSE (KM12) was “INTERMEDIATE” and the ACTIVITY_AREA (KM12 cells) was 27.86. The AMAX (KM12 cells) was -33.54, the RESPONSE (KM12 cells) was “INTERMEDIATE” and the ACTIVITY_AREA (KMM-1) was 70.57. For the same molecule, the AMAX (KMM-1) was -76.76, the RESPONSE (KMM-1) was “INTERMEDIATE” and the ACTIVITY_AREA (KMM-1 cells) was 70.57. For the same molecule, the AMAX (KMM-1 cells) was -76.76, the RESPONSE (KMM-1 cells) was “INTERMEDIATE” and the ACTIVITY_AREA (KMRC-1) was 11.39. The AMAX (KMRC-1) was -23.55, the RESPONSE (KMRC-1) was “INTERMEDIATE” and the ACTIVITY_AREA (KMRC-1 cells) was 11.39. The AMAX (KMRC-1 cells) was -23.55, the RESPONSE (KMRC-1 cells) was “INTERMEDIATE” and the ACTIVITY_AREA (KMRC-2) was 12.6. For the same molecule, the AMAX (KMRC-2) was 11.12, the RESPONSE (KMRC-2) was “REFRACTORY” and the ACTIVITY_AREA (KMRC-2 cells) was 12.6. For the same molecule, the AMAX (KMRC-2 cells) was 11.12, the RESPONSE (KMRC-2 cells) was “REFRACTORY” and the ACTIVITY_AREA (KMRC-20) was 20.95. For the same molecule, the AMAX (KMRC-20) was -16.57, the RESPONSE (KMRC-20) was “INTERMEDIATE” and the ACTIVITY_AREA (KMRC-20 cells) was 20.95. The AMAX (KMRC-20 cells) was -16.57, the RESPONSE (KMRC-20 cells) was “INTERMEDIATE” and the ACTIVITY_AREA (KMS-11) was 56.95. For the same molecule, the AMAX (KMS-11) was -88.04, the RESPONSE (KMS-11) was “INTERMEDIATE” and the ACTIVITY_AREA (KMS-11 cells) was 56.95. The AMAX (KMS-11 cells) was -88.04, the RESPONSE (KMS-11 cells) was “INTERMEDIATE” and the ACTIVITY_AREA (KMS-12-BM) was 24.11. The AMAX (KMS-12-BM) was -61.82, the RESPONSE (KMS-12-BM) was “INTERMEDIATE” and the ACTIVITY_AREA (KMS-12-BM cells) was 24.11. The AMAX (KMS-12-BM cells) was -61.82, the RESPONSE (KMS-12-BM cells) was “INTERMEDIATE” and the ACTIVITY_AREA (KMS-26) was 41.57. The AMAX (KMS-26) was -70.18, the RESPONSE (KMS-26) was “INTERMEDIATE” and the ACTIVITY_AREA (KMS-26 cells) was 41.57. For the same molecule, the AMAX (KMS-26 cells) was -70.18, the RESPONSE (KMS-26 cells) was “INTERMEDIATE” and the ACTIVITY_AREA (KMS-27) was 14.64. For the same molecule, the AMAX (KMS-27) was -52.87, the RESPONSE (KMS-27) was “INTERMEDIATE” and the ACTIVITY_AREA (KMS-27 cells) was 14.64. For the same molecule, the AMAX (KMS-27 cells) was -52.87, the RESPONSE (KMS-27 cells) was “INTERMEDIATE” and the ACTIVITY_AREA (KMS-28BM) was 29.69. For the same molecule, the AMAX (KMS-28BM) was -50.99, the RESPONSE (KMS-28BM) was “INTERMEDIATE” and the ACTIVITY_AREA (KMS-34) was 20.59. The AMAX (KMS-34) was -54.42, the RESPONSE (KMS-34) was “INTERMEDIATE” and the ACTIVITY_AREA (KMS-34 cells) was 20.59. For the same molecule, the AMAX (KMS-34 cells) was -54.42, the RESPONSE (KMS-34 cells) was “INTERMEDIATE” and the ACTIVITY_AREA (KNS-62) was 15.11. The AMAX (KNS-62) was -29.24, the RESPONSE (KNS-62) was “INTERMEDIATE” and the ACTIVITY_AREA (KNS-62 cells) was 15.11. For the same molecule, the AMAX (KNS-62 cells) was -29.24, the RESPONSE (KNS-62 cells) was “INTERMEDIATE” and the ACTIVITY_AREA (KO52) was 16.9. For the same molecule, the AMAX (KO52) was -64.86, the RESPONSE (KO52) was “INTERMEDIATE” and the ACTIVITY_AREA (KO52 cells) was 16.9. The AMAX (KO52 cells) was -64.86, the RESPONSE (KO52 cells) was “INTERMEDIATE” and the ACTIVITY_AREA (KP-1NL) was 50. The AMAX (KP-1NL) was -47.73, the RESPONSE (KP-1NL) was “INTERMEDIATE” and the ACTIVITY_AREA (KP-1NL (pancreas)) was 50. The AMAX (KP-1NL (pancreas)) was -47.73, the RESPONSE (KP-1NL (pancreas)) was “INTERMEDIATE” and the ACTIVITY_AREA (KP-N-SI9s) was 39.08. The AMAX (KP-N-SI9s) was -59.99, the RESPONSE (KP-N-SI9s) was “INTERMEDIATE” and the ACTIVITY_AREA (KP-N-YN) was 7.56. The AMAX (KP-N-YN) was 5.57, the RESPONSE (KP-N-YN) was “REFRACTORY” and the ACTIVITY_AREA (KP-N-YN (autonomic_ganglia)) was 7.56. For the same molecule, the AMAX (KP-N-YN (autonomic_ganglia)) was 5.57, the RESPONSE (KP-N-YN (autonomic_ganglia)) was “REFRACTORY” and the ACTIVITY_AREA (KPL-1) was 54.67. For the same molecule, the RESPONSE (KPL-1) was “INTERMEDIATE”, the ACTIVITY_AREA (KPL-1 (breast)) was 54.67 and the AMAX (KPL-1 (breast)) was -60.19. For the same molecule, the RESPONSE (KPL-1 (breast)) was “INTERMEDIATE”, the ACTIVITY_AREA (KS-1) was 91.4 and the AMAX (KS-1) was -50.57. The RESPONSE (KS-1) was “INTERMEDIATE”, the ACTIVITY_AREA (KS-1 (central_nervous_system)) was 91.4 and the AMAX (KS-1 (central_nervous_system)) was -50.57. The RESPONSE (KS-1 (central_nervous_system)) was “INTERMEDIATE”, the ACTIVITY_AREA (KU812) was 70.55 and the AMAX (KU812) was -93.11. The RESPONSE (KU812) was “INTERMEDIATE”, the ACTIVITY_AREA (KU812 cells) was 70.55 and the AMAX (KU812 cells) was -93.11. For the same molecule, the RESPONSE (KU812 cells) was “INTERMEDIATE”, the ACTIVITY_AREA (KURAMOCHI (ovary)) was 41.47 and the AMAX (KURAMOCHI (ovary)) was -57.84. The RESPONSE (KURAMOCHI (ovary)) was “INTERMEDIATE”, the ACTIVITY_AREA (KYM-1 (soft_tissue)) was 74.89 and the AMAX (KYM-1 (soft_tissue)) was -73.57. For the same molecule, the RESPONSE (KYM-1 (soft_tissue)) was “INTERMEDIATE”, the ACTIVITY_AREA (KYM-1 cells) was 74.89 and the AMAX (KYM-1 cells) was -73.57. The RESPONSE (KYM-1 cells) was “INTERMEDIATE”, the ACTIVITY_AREA [1] was 32.54 and the AMAX [1] was -58.34. The RESPONSE [1] was “INTERMEDIATE”, the ACTIVITY_AREA (KYO-1 cells) was 32.54 and the AMAX (KYO-1 cells) was -58.34. For the same molecule, the RESPONSE (KYO-1 cells) was “INTERMEDIATE”, the ACTIVITY_AREA (KYSE-30 (oesophagus)) was 9.52 and the AMAX (KYSE-30 (oesophagus)) was -43. The RESPONSE (KYSE-30 (oesophagus)) was “INTERMEDIATE”, the ACTIVITY_AREA (KYSE-70 (oesophagus)) was 35.67 and the AMAX (KYSE-70 (oesophagus)) was -51.81. For the same molecule, the RESPONSE (KYSE-70 (oesophagus)) was “INTERMEDIATE”, the ACTIVITY_AREA (KYSE-150 (oesophagus)) was 32.32 and the AMAX (KYSE-150 (oesophagus)) was -38.06. The RESPONSE (KYSE-150 (oesophagus)) was “INTERMEDIATE”, the ACTIVITY_AREA (KYSE-270 (oesophagus)) was 78.27 and the AMAX (KYSE-270 (oesophagus)) was -38.17. For the same molecule, the RESPONSE (KYSE-270 (oesophagus)) was “INTERMEDIATE”, the ACTIVITY_AREA (KYSE-410 (oesophagus)) was 61.52 and the AMAX (KYSE-410 (oesophagus)) was -56.07. For the same molecule, the RESPONSE (KYSE-410 (oesophagus)) was “INTERMEDIATE”, the ACTIVITY_AREA (KYSE-410 cells) was 61.52 and the AMAX (KYSE-410 cells) was -56.07. For the same molecule, the RESPONSE (KYSE-410 cells) was “INTERMEDIATE”, the ACTIVITY_AREA (KYSE-450 (oesophagus)) was 26.55 and the AMAX (KYSE-450 (oesophagus)) was -37.05. For the same molecule, the RESPONSE (KYSE-450 (oesophagus)) was “INTERMEDIATE”, the ACTIVITY_AREA (KYSE-450 cells) was 26.55 and the AMAX (KYSE-450 cells) was -37.05. The RESPONSE (KYSE-450 cells) was “INTERMEDIATE”, the ACTIVITY_AREA (KYSE-510 (oesophagus)) was 54.71 and the AMAX (KYSE-510 (oesophagus)) was -38.87. For the same molecule, the RESPONSE (KYSE-510 (oesophagus)) was “INTERMEDIATE”, the ACTIVITY_AREA (KYSE-520 (oesophagus)) was 48.13 and the AMAX (KYSE-520 (oesophagus)) was -67.28. For the same molecule, the RESPONSE (KYSE-520 (oesophagus)) was “INTERMEDIATE”, the ACTIVITY_AREA (Ki-JK) was 33.09 and the AMAX (Ki-JK) was -86.88. For the same molecule, the RESPONSE (Ki-JK) was “INTERMEDIATE”.
